Results taken from PMC13463607.
Results are given in words; binding and its absence hold for the method and conditions named. In cells and extracts the contact can be indirect. Some binding calls cover weakened binding; strength is not graded here.

Protein sequences, listed by entry. Tags and fused reporters are not part of them.
UniProt Q14247: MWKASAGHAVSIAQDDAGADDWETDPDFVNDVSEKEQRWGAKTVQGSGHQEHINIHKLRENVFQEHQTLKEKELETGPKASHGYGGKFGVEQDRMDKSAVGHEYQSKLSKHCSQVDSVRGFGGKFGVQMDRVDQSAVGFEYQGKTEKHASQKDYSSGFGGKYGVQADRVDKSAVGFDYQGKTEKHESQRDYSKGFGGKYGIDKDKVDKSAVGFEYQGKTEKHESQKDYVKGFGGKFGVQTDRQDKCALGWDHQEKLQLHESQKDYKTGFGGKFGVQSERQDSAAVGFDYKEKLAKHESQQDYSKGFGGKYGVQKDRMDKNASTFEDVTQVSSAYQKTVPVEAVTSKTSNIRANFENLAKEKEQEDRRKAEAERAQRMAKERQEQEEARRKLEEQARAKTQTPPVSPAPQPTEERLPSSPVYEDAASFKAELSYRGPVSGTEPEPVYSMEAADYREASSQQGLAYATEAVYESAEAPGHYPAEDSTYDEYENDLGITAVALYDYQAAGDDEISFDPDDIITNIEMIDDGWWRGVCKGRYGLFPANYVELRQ
UniProt Q96GD4: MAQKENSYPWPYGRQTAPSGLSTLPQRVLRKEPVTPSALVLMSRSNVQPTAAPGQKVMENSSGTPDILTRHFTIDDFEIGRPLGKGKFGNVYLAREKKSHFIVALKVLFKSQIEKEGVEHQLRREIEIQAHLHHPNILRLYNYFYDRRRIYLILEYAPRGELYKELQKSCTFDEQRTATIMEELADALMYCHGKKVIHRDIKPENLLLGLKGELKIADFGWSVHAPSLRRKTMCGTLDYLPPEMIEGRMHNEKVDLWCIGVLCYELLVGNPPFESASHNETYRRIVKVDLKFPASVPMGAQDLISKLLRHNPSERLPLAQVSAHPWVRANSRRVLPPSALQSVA

T1: low molecular weight protein tyrosine phosphatase (human (endogenous in GBM43)) (UniProt P24666)
T1 sequence: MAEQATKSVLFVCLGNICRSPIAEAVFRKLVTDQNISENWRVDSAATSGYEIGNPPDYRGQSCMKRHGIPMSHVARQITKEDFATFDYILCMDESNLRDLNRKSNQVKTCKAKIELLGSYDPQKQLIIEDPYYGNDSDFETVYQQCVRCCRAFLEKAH


Columns and labels:
[1] = biological target: cortactin (human (endogenous in GBM43)) (UniProt Q14247); assay: co-IP; IP of cortactin from GBM43 cell lysates, blotting for aurora B and LMW-PTP; IP of LMW-PTP from the same lysates, blotting for cortactin; endogenous proteins; n = 3 technical replicates
[2] = biological target: T1, low molecular weight protein tyrosine phosphatase (human (endogenous in GBM43)); assay: as above

Molecule | binding [1] | binding [2]
aurora kinase B (from UniProt Q96GD4 1-344) (enzyme) | binds | –
cortactin (from UniProt Q14247 1-550) | – | binds
low molecular weight protein tyrosine phosphatase (enzyme, UniProt P24666 1-158) MAEQATKSVLFVCLGNICRSPIAEAVFRKLVTDQNISENWRVDSAATSGYEIGNPPDYRGQSCMKRHGIPMSHVARQITKEDFATFDYILCMDESNLRDLNRKSNQVKTCKAKIELLGSYDPQKQLIIEDPYYGNDSDFETVYQQCVRCCRAFLEKAH | binds | –
